This test is described as follows: qHTS Assay for Lipid Storage Modulators in Drosophila S3 Cells.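 For cell number change: cells counted by Cell Tracker Red CMTPX staining in the red channel.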 As to conditions: BODIPY lipid droplet fluorescence, 18-24 h; for cell number change: measured here: cell count max response, cells fed with added oleic acid. Summed up: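 Drosophila S3 cells got compounds at several concentrations plus oleic acid (400 uM solution). Laser-scanning cytometry with 488 nm excitation read lipid droplets at 500-530 nm and cells at 575-640 nm. Percent activity was relative to 20 uM Triacsin C.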

[1] abbreviates: measured here: cell number channel AC50, cells fed with added oleic acid.
The mark [2] stands for this setting: measured here: lipid fluorescence (Fed channel) AC50, cells fed with added oleic acid.

The structures appear in SMILES notation. The list shows a part of the results. These are further read-outs of the screen, such as a control signal, another cell line or another target. No call is given for them. Compounds called inactive in the main read-out are mostly missing here. Words in brackets tell the shape of the fitted curve; partial curves, single points and poor fits give uncertain potencies.

Turning to `COc1ccc(NC(=O)c2nn(C)c(C(=O)Nc3ccc(OC)cc3)c2[N+](=O)[O-])cc1`, the cell number change is 78.3%. For the same compound, the AC50 under setting [1] was 18.4 µM [rising, partial curve]. In addition, the AC50 under setting [2] was 0.58 µM [rising, single point].
As for `N#Cc1c(N)n(CCc2ccc(F)cc2)c2nc3ccccc3nc12`, the AC50 reads like this: under setting [1], 0.366 µM [rising, full curve]; under setting [2], 1.16 µM [rising, full curve].
As to `Clc1ccc(Cc2noc(Cc3ccccc3)n2)cc1Cl`, under setting [2], the AC50 is 0.58 µM [falling, single point].
With `COc1ccc(C2=NN(c3nc(-c4ccccc4)c(CC(=O)O)s3)C(c3ccco3)C2)cc1` (centres undefined), the cell number change was 40.3%. In addition, the AC50 under setting [1] was 2.31 µM [rising, partial curve]. In addition, under setting [2], the concentration at half-maximal activity (AC50) was 1.46 µM [rising, partial curve].
For the compound `CC(C)C12CCC(C(=O)O)C(C1)C(=O)O2` (centres undefined), the cell number change worked out at 1.76%. Under setting [2], the AC50 is 18.4 µM [rising, single point].
Consider `CCNC(=S)N/N=C/c1ccc(OCC(=O)Nc2ccc(OC)cc2)c(OC)c1`, for which the cell number change came to 33.9%. Moreover, under setting [1], the AC50 was 29.1 µM [rising, single point]. Further, under setting [2], the AC50 is 2.06 µM [rising, full curve].
In the case of `Cc1c(/C=N/NC(=O)C2(O)c3ccccc3-c3ccccc32)cnn1C`, the cell number change was -0.197%. For the same compound, the AC50 under setting [1] is 6.51 µM [falling, single point]. Further, under setting [2], the AC50 is 6.51 µM [falling, single point].
For the compound `O=C(N/N=C\c1cc([N+](=O)[O-])ccc1N1CCCC1)c1ccccn1`, the cell number change is -0.639%. Besides, the AC50 under setting [2] was 6.51 µM [rising, single point].
For `CC(C)(C)c1ccc(S(=O)(=O)NCc2ccc(C(=O)N3CCCC3)cc2)cc1`, the cell number change stood at 84.6%. Further, under setting [1], the AC50 was 18.4 µM [rising, single point]. Also, the AC50 under setting [2] is 29.1 µM [rising, single point].
Regarding `COc1ccc(CN(C)C(=O)c2[nH]c(C)c(C(C)=O)c2C)cc1F`, under setting [2], the AC50 was 29.1 µM [falling, partial curve, poor fit].
For the compound `O=C(O)CCNS(=O)(=O)c1ccc2ccccc2c1`, the cell number change amounted to 10.7%. In addition, the AC50 under setting [2] was 6.51 µM [falling, single point].
Turning to `COc1cccc(N2CCN(c3ccc4nnc(CCC(=O)Nc5ccc(C)cn5)n4n3)CC2)c1`, the cell number change was determined as 5.19%. Further, the AC50 under setting [2] is 23.1 µM [falling, partial curve].
As for `O=C(N/N=C/c1ccc(N2CCOCC2)s1)c1ccc(NS(=O)(=O)c2cccs2)cc1`, the cell number change came out at 9.78%. Also, under setting [1], the AC50 was 6.51 µM [falling, single point]. The AC50 under setting [2] is 0.092 µM [falling, full curve, poor fit].
Consider `O=C(Nc1ccc(S(=O)(=O)N2CCCC2)cc1)N1c2ccccc2Sc2ccccc21`, for which the cell number change is 135%. For the same compound, the AC50 under setting [2] was 0.326 µM [falling, full curve].
In the case of `CCOC(=O)CNC(=O)CSc1nnc(COc2ccc(Cl)cc2)n1CC`, the cell number change was determined as 59.7%. For the same compound, the AC50 under setting [1] was 0.206 µM [rising, full curve]. In addition, the AC50 under setting [2] is 0.411 µM [rising, partial curve].
Regarding `CCC(C(=O)OCC(=O)Nc1ccc2[nH]c(=O)[nH]c2c1)c1ccccc1` (centres undefined), the cell number change amounted to 17.2%. Also, the AC50 under setting [2] was 29.1 µM [rising, single point].
As for `CCCNC(=O)CN(c1cccc(F)c1)S(C)(=O)=O`, the cell number change is -9.58%. The AC50 under setting [2] is 2.59 µM [rising, full curve, poor fit].
`Cc1cc(C(=O)COC(=O)CNC(=O)c2ccccc2)c(C)n1CC1CCCO1` (centres undefined): the cell number change was 4.93%. In addition, under setting [2], the AC50 is 1.16 µM [falling, full curve].
Take `CCCn1c(SCC(=O)NC2CC2)nnc1-c1ccccn1`: the cell number change worked out at 15.4%. Further, the AC50 under setting [2] was 6.51 µM [rising, partial curve, poor fit].
With `O=C1NC(=O)C2(CCCCCCCCCCC2)N1`, the cell number change came to 1.28%.
In the case of `O=C1c2ccccc2C(=O)N1CCc1c[nH]c2ccc(O)cc12`, the cell number change turned out to be 9.29%. The AC50 under setting [2] was 0.651 µM [rising, partial curve, poor fit].
On to `CN(C)CCCN(C(=O)c1ccc(S(=O)(=O)N2CCc3ccccc32)cc1)c1nc2c(Cl)cccc2s1`, for which the cell number change was 35.1%. Further, under setting [1], the half-maximal activity concentration (AC50) was 29.1 µM [rising, single point]. Moreover, under setting [2], the AC50 is 29.1 µM [rising, partial curve].
Turning to `O=C(c1cccc(Cl)c1)C1CCCN(C(=O)c2ccc3c(c2)OCO3)C1` (centres undefined), the cell number change amounted to 0.885%. Besides, the AC50 under setting [2] was 4.61 µM [falling, single point].
As to `CC(OC(=O)CCN=C1NS(=O)(=O)c2ccccc21)C(=O)Nc1ccccc1F` (centres undefined), the cell number change worked out at 30.8%. Further, under setting [1], the AC50 is 32.6 µM [rising, single point].
On to `O=C(CCCCl)NC1=NN(c2ccccc2)C(=O)C1`, for which the cell number change is 13%. Besides, under setting [2], the AC50 was 0.651 µM [rising, partial curve].
Regarding `CSc1ccccc1C(=O)NCCc1ccc(S(=O)(=O)N2CCCCC2)cc1`, the cell number change was found to be 44.7%. Besides, under setting [1], the AC50 is 29.1 µM [rising, single point].
As to `O=C(NCCN1CCOCC1)c1ccc(Cl)c(S(=O)(=O)N2CCOCC2)c1`, the cell number change amounted to 23.7%. Further, the AC50 under setting [1] is 0.326 µM [rising, full curve, poor fit]. The concentration at half-maximal activity (AC50) under setting [2] was 1.46 µM [rising, full curve].
For the compound `O=C(Cc1ccccc1)NNC(=O)c1ccc(Br)o1`, the cell number change was -4.42%. Moreover, the AC50 under setting [2] is 20.6 µM [rising, partial curve].
As to `O=C(CSc1ccc2nnc(-c3ccncc3)n2n1)Nc1ccc2c(c1)OCO2`, the cell number change was -10.8%. Further, the AC50 under setting [1] is 4.11 µM [falling, single point]. The AC50 under setting [2] is 0.58 µM [falling, single point].
As for `COc1ccc(C(=O)N2CCCC(CCC(=O)NCc3ccccc3F)C2)c(OC)n1` (centres undefined), the cell number change was -17%. The AC50 under setting [2] is 29.1 µM [falling, single point].
As for `CNC(=S)N/N=C/c1cc(Br)c(OCc2ccncc2)c(OC)c1`, the cell number change is -9.97%. Moreover, the AC50 under setting [2] is 18.4 µM [falling, single point].
`Cc1cccnc1NC(=O)c1ccc(Br)o1`: the cell number change was found to be 29.3%.
`COc1cc(NC(=O)c2cccc(C)c2)c(OC)cc1NC(=O)CN1CCOCC1`: the AC50 is, setting by setting: under setting [1], 6.51 µM [falling, single point]; under setting [2], 0.651 µM [rising, single point].
In the case of `CCCOc1ccc(NC(=O)C2CC(=O)N3CCCN=C3S2)cc1` (centres undefined), the cell number change amounted to 8.5%.
For the compound `OCCN(Cc1ccccc1)Cc1ccc(C(F)(F)F)cc1`, the cell number change was -49.2%. The AC50 under setting [1] was 20.6 µM [falling, single point]. The AC50 under setting [2] is 23.1 µM [falling, single point].
Consider `Cc1cccc(C(=O)Nc2cc(S(=O)(=O)N3CCOCC3)ccc2N2CCCCC2)c1`, for which the cell number change was 18.9%. Further, the AC50 under setting [2] was 0.92 µM [rising, full curve, poor fit].
For the compound `Cc1cccc(N2CCN(S(=O)(=O)c3ccc4c(c3)OCCO4)CC2)c1C`, the cell number change was 15.5%. Also, the AC50 under setting [2] was 29.1 µM [rising, single point].
`CCOc1cc(C(=O)N/N=C/C(Br)=C/c2ccccc2)cc(OCC)c1OCC`: the cell number change was found to be 10.6%. Besides, under setting [2], the AC50 was 1.03 µM [rising, partial curve].
For `O=C(Nc1ccc(S(=O)(=O)Nc2ncccn2)cc1)C1COc2ccccc2O1` (centres undefined), the cell number change is -3.85%. Also, the AC50 under setting [1] was 0.00517 µM [falling, full curve, poor fit].
For the compound `Cc1c(NC(=O)CSc2nc3ccccc3n2C)c(=O)n(-c2ccccc2)n1C`, the cell number change amounted to 10.3%. In addition, the AC50 under setting [2] is 29.1 µM [falling, single point].
With `CN1CCN(C(=O)C2CCC(CNS(=O)(=O)c3cccc4cccnc34)CC2)CC1` (centres undefined), the cell number change is -12.7%. Under setting [1], the AC50 is 2.06 µM [falling, single point]. The AC50 under setting [2] was 0.259 µM [falling, full curve, poor fit].
For the compound `O=C(CSc1nc2cc3c(cc2c(=O)n1CCC1=CCCCC1)OCO3)NCc1ccco1`, the cell number change was -2.39%. In addition, the AC50 under setting [2] was 1.46 µM [falling, partial curve, poor fit].
For the compound `OC(CN1CCN(C(c2ccccc2)c2ccccc2)CC1)c1ccccc1` (centres undefined), the cell number change is -52.2%. The AC50 under setting [1] was 18.4 µM [falling, single point]. The AC50 under setting [2] was 23.1 µM [falling, single point].
Turning to `CCNC(=O)N1C(CC(=O)OCC)C(=O)NC2CCCCC21` (centres undefined), the cell number change was -140%. In addition, the half-maximal activity concentration (AC50) under setting [1] is 25.9 µM [falling, partial curve]. Also, under setting [2], the AC50 is 1.46 µM [falling, partial curve].
Regarding `COC(=O)c1ccc(NC(=O)C(=O)N2CCN(C(=S)Nc3ccccc3OC)CC2)cc1`, under setting [2], the AC50 was 20.6 µM [rising, single point].
In the case of `N#CCCN(C(=O)COC(=O)c1ccc(S(=O)(=O)N2CCCC2)cc1)c1cccc(Cl)c1`, the cell number change is -22.3%. Besides, the AC50 under setting [1] was 0.517 µM [falling, full curve].
For `CC1CC1C(=O)Nc1nc(-c2cccs2)c(-c2cccs2)s1` (centres undefined), under setting [2], the AC50 was 14.6 µM [rising, partial curve].
In the case of `CC(C)C(C(=O)NCc1ccco1)N(Cc1ccco1)C(=O)CNS(=O)(=O)c1ccc(F)cc1` (centres undefined), the cell number change is -16.2%.
In the case of `CCC1Oc2ccc(C)cc2N(CC(=O)N(Cc2cccnc2)Cc2ccc(C)o2)C1=O` (centres undefined), the concentration at half-maximal activity (AC50) under setting [2] is 0.651 µM [rising, single point].
`CCN(CC)c1ccc(NC(=O)CN2CCN(c3nc(C)cc(C)n3)CC2)cc1`: the cell number change is -11.7%.
With `CN(C)S(=O)(=O)c1ccc(NC(=O)c2ccccn2)cc1`, the AC50 under setting [2] was 2.91 µM [rising, partial curve, poor fit].
On to `CCCCNC(=O)CS(=O)Cc1nc(-c2ccc(C)cc2)oc1C` (centres undefined), for which the cell number change was 39.2%. Besides, under setting [1], the AC50 was 20.6 µM [rising, partial curve].
Regarding `COc1ccc(-c2csc(NC(=O)CSCC(=O)Nc3cc(C)on3)n2)c(OC)c1`, the cell number change came out at 10.9%. Further, under setting [2], the AC50 was 0.259 µM [rising, partial curve, poor fit].
As for `CCOC(=O)c1cccc(NC(=O)/C=C/c2ccc([N+](=O)[O-])cc2)c1`, the cell number change was determined as 34.4%. Also, the AC50 under setting [1] was 5.8 µM [rising, partial curve].
Regarding `O=C(CCN1CCOCC1)c1ccccc1`, the cell number change stood at 1.27%. Moreover, the AC50 under setting [2] was 5.8 µM [falling, single point].
Consider `CN1C2C=C(N(CCc3c[nH]c4ccccc34)C(=O)c3ccc(Cl)cc3)CC1CC2` (centres undefined), for which the cell number change stood at 4.02%.

Source of the values: PubChem BioAssay AID2685 (National Center for Advancing Translational Sciences (NCATS), 2010).
